Measured data: PubChem BioAssay AID1224828 (NIAID, 2016)
In all, the deposit lists about 17,000 reagents; below is an unselected part. 762 of them (4.5%) were called active. 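Active calls include both raised and lowered p65 entry, mostly lowered; wells with fewer than 50 cells lack a z-score.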 The raw values are shown without normalisation. A number with no mark means an inactive call. Reagent sequences are not shown.

- Aim: 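Knock-downs that increase or decrease LPS-induced p65 nuclear translocation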 (primary screen)
- Cell system: mouse RAW264.7 G9 macrophage reporter cells (GFP-p65, Tnf promoter-mCherry)
- Reagents: siRNA pool against mouse genes, 100 nM
- Timing: 2 days siRNA transfection, then 40 min LPS before fixation
- Conditions: LPS (Salmonella minnesota R595) at 10 ng/ml
- Measured: 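Imaged p65 nuclear translocation ratio, normalised to the plate median, converted to robust z-scores and averaged across two replicates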
- Scale: p65 translocation robust z-score: higher = more nuclear NF-kappaB p65 after LPS than the plate median; nuclear/cytoplasmic p65 ratio: higher = more nuclear NF-kappaB p65
- Call rule: 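Active if robust z is above 3.3 (negative regulators) or below -1.56, the Tlr4 control median (positive regulators); activity score 50 or more; control wells not called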
- Meaning of the calls: active = hit (p65 shift raised or lowered); inactive = no clear change

Silencing of Ldb3 [SID315470338] came out at: p65 translocation robust z-score 0.09; nuclear/cytoplasmic p65 ratio, rep 1 = 1.49; nuclear/cytoplasmic p65 ratio, rep 2 = 1.51; low cell count flag enough cells to score.
For Or52ad1 [SID315480653], the entry reads nuclear/cytoplasmic p65 ratio, rep 1 = 1.41; nuclear/cytoplasmic p65 ratio, rep 2 = 0; low cell count flag fewer than 50 cells per well; well left out of scoring.
Knock-down of Tmem33 [SID315473282] resulted in: p65 translocation robust z-score 0.39; nuclear/cytoplasmic p65 ratio, rep 1 = 1.57; nuclear/cytoplasmic p65 ratio, rep 2 = 1.52; low cell count flag enough cells to score.
Against Or5j3 [SID315480620], the values are p65 translocation robust z-score -0.22; nuclear/cytoplasmic p65 ratio, rep 1 = 1.5; nuclear/cytoplasmic p65 ratio, rep 2 = 1.65; low cell count flag enough cells to score.
Exo1 [SID315470475] showed p65 translocation robust z-score -0.51; nuclear/cytoplasmic p65 ratio, rep 1 = 1.41; nuclear/cytoplasmic p65 ratio, rep 2 = 1.29; low cell count flag enough cells to score.
Silencing of Hycc2 [SID315477781] resulted in: p65 translocation robust z-score 0.32; nuclear/cytoplasmic p65 ratio, rep 1 = 1.51; nuclear/cytoplasmic p65 ratio, rep 2 = 1.53; low cell count flag enough cells to score.
Depletion of Nuf2 [SID315472752] resulted in: nuclear/cytoplasmic p65 ratio, rep 1 = 1.39; nuclear/cytoplasmic p65 ratio, rep 2 = 1.44; low cell count flag fewer than 50 cells per well; well left out of scoring.
With knock-down of Sox2ot [SID315481321], the record shows p65 translocation robust z-score -0.54; nuclear/cytoplasmic p65 ratio, rep 1 = 1.48; nuclear/cytoplasmic p65 ratio, rep 2 = 1.47; low cell count flag enough cells to score.
For Ddx6 [SID315466297], the values are p65 translocation robust z-score 0.93; nuclear/cytoplasmic p65 ratio, rep 1 = 1.62; nuclear/cytoplasmic p65 ratio, rep 2 = 1.49; low cell count flag enough cells to score.
Knock-down of Tubgcp5 [SID315479075] resulted in: p65 translocation robust z-score 0.12; nuclear/cytoplasmic p65 ratio, rep 1 = 1.37; nuclear/cytoplasmic p65 ratio, rep 2 = 1.27; low cell count flag enough cells to score.
For Harbi1 [SID315479573] the deposit lists p65 translocation robust z-score -0.77; nuclear/cytoplasmic p65 ratio, rep 1 = 1.47; nuclear/cytoplasmic p65 ratio, rep 2 = 1.43; low cell count flag enough cells to score.
For Stag2 [SID315469480] the deposit lists nuclear/cytoplasmic p65 ratio, rep 1 = 1.27; nuclear/cytoplasmic p65 ratio, rep 2 = 1.43; low cell count flag fewer than 50 cells per well; well left out of scoring.
After knock-down of Chpf [SID315474915], the screen gave p65 translocation robust z-score -0.09; nuclear/cytoplasmic p65 ratio, rep 1 = 1.54; nuclear/cytoplasmic p65 ratio, rep 2 = 1.55; low cell count flag enough cells to score.

Look-ups from above.
Result of Chpf [SID315474915] in “p65 translocation robust z-score”: -0.09
Sox2ot [SID315481321], low cell count flag → enough cells to score

More entries follow.
H2-M1 [SID315478368] scored p65 translocation robust z-score 1.57; nuclear/cytoplasmic p65 ratio, rep 1 = 1.35; nuclear/cytoplasmic p65 ratio, rep 2 = 1.78; low cell count flag enough cells to score.
After knock-down of Fbxw7 [SID315470823], the record shows p65 translocation robust z-score 0.27; nuclear/cytoplasmic p65 ratio, rep 1 = 1.38; nuclear/cytoplasmic p65 ratio, rep 2 = 1.39; low cell count flag enough cells to score.
After knock-down of Hbp1 [SID315474718], the screen gave p65 translocation robust z-score 3.44 (active); nuclear/cytoplasmic p65 ratio, rep 1 = 2.47; nuclear/cytoplasmic p65 ratio, rep 2 = 1.75; low cell count flag enough cells to score.
With knock-down of Capn7 [SID315465750], the record shows p65 translocation robust z-score 0.49; nuclear/cytoplasmic p65 ratio, rep 1 = 1.68; nuclear/cytoplasmic p65 ratio, rep 2 = 1.84; low cell count flag enough cells to score.
Zfp36 [SID315470113] showed p65 translocation robust z-score 0.48; nuclear/cytoplasmic p65 ratio, rep 1 = 1.5; nuclear/cytoplasmic p65 ratio, rep 2 = 1.28; low cell count flag enough cells to score.
For Or51v14 [SID315480453], the entry reads p65 translocation robust z-score -0.14; nuclear/cytoplasmic p65 ratio, rep 1 = 1.5; nuclear/cytoplasmic p65 ratio, rep 2 = 1.19; low cell count flag enough cells to score.
With knock-down of Wdr20 [SID315473857] the results were p65 translocation robust z-score -1.78 (active); nuclear/cytoplasmic p65 ratio, rep 1 = 1.13; nuclear/cytoplasmic p65 ratio, rep 2 = 1.07; low cell count flag enough cells to score.
Fam3b [SID315471013] scored p65 translocation robust z-score -0.36; nuclear/cytoplasmic p65 ratio, rep 1 = 1.36; nuclear/cytoplasmic p65 ratio, rep 2 = 1.23; low cell count flag enough cells to score.
Prnp [SID315468710] showed p65 translocation robust z-score 0.39; nuclear/cytoplasmic p65 ratio, rep 1 = 1.51; nuclear/cytoplasmic p65 ratio, rep 2 = 1.49; low cell count flag enough cells to score.
Tm4sf20 [SID315472325] showed p65 translocation robust z-score -1.64 (active); nuclear/cytoplasmic p65 ratio, rep 1 = 1.2; nuclear/cytoplasmic p65 ratio, rep 2 = 1.18; low cell count flag enough cells to score.
After knock-down of Gulp1 [SID315474108], the record shows p65 translocation robust z-score -0.65; nuclear/cytoplasmic p65 ratio, rep 1 = 1.32; nuclear/cytoplasmic p65 ratio, rep 2 = 1.32; low cell count flag enough cells to score.
Silencing of Defa20 [SID315473359] came out at: nuclear/cytoplasmic p65 ratio, rep 1 = 1.63; nuclear/cytoplasmic p65 ratio, rep 2 = 1.25; low cell count flag fewer than 50 cells per well; well left out of scoring.
Knock-down of Ndufs7 [SID315475113] resulted in: p65 translocation robust z-score -0.54; nuclear/cytoplasmic p65 ratio, rep 1 = 1.71; nuclear/cytoplasmic p65 ratio, rep 2 = 1.5; low cell count flag enough cells to score.
Depletion of Cyp4a12b [SID315466247] resulted in: p65 translocation robust z-score -0.03; nuclear/cytoplasmic p65 ratio, rep 1 = 1.6; nuclear/cytoplasmic p65 ratio, rep 2 = 1.75; low cell count flag enough cells to score.
